# Source: the supplement of paper PMC8728848
# The list shows a part of the results.
# B1: CLEC9a (Mus musculus), Q8BRU4 (protein)
# chain: MHAEEIYTSLQWDIPTSEASQKCQSPSKCSGAWCVVTMISCVVCMGLLATSIFLGIKFFQVSSLVLEQQERLIQQDTALVNLTQWQRKYTLEYCQALLQRSLHSGSDCSPCPHNWIQNGKSCYYVFERWEMWNISKKSCLKEGASLFQIDSKEEMEFISSIGKLKGGNKYWVGVFQDGISGSWFWEDGSSPLSDLLPAERQRSAGQICGYLKDSTLISDKCDSWKYFICEKKAFGSCI
# Tests used:
# Test in all cases: glycan array binding signal (z-score within array); higher = stronger binding
# Settings in all cases: glycan notation: IUPAC condensed, linker removed
# [1] = biological target: GlcNAc6S(b1-3)Gal(b1-4)GlcNAc
# Summary of the method: (§1)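 The Consortium for Functional Glycomics database supplied 3228 glycan arrays, of which those lacking an available protein sequence were dropped. The binding signal, a within-array Z-score, was averaged across arrays of the same protein sequence and across linkers. Negative scores can be read as non-binding.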
# [2] = biological target: Kdn(a2-3)Gal(b1-3)GalNAc
# Summary of the method: as §1
# [3] = biological target: Kdn(a2-3)Gal(b1-3)GlcNAc
# Summary of the method: as §1
# [4] = biological target: Kdn(a2-3)Gal(b1-4)Glc
# Summary of the method: as §1
# [5] = biological target: Kdn(a2-3)Gal(b1-4)GlcNAc
# Summary of the method: as §1
# [6] = biological target: Kdn(a2-3)Gal(b1-4)[Fuc(a1-3)]GlcNAc
# Summary of the method: as §1
# [7] = biological target: Kdn(a2-6)Gal(b1-4)GlcNAc
# Summary of the method: as §1
# [8] = biological target: Man(a1-2)Man(a1-2)Man(a1-3)Man
# Summary of the method: as §1
# [9] = biological target: Man(a1-2)Man(a1-2)Man(a1-6)[Man(a1-3)]Man
# Summary of the method: as §1
# [10] = biological target: Man(a1-2)Man(a1-3)Man
# Summary of the method: as §1
# [11] = biological target: Man(a1-2)Man(a1-3)[Man(a1-2)Man(a1-6)]Man
# Summary of the method: as §1
# [12] = biological target: Man(a1-2)Man(a1-3)[Man(a1-2)Man(a1-6)]Man(a1-6)[Man(a1-2)Man(a1-2)Man(a1-3)]Man
# Summary of the method: as §1
# [13] = biological target: Man(a1-2)Man(a1-3)[Man(a1-2)Man(a1-6)]Man(a1-6)[Man(a1-2)Man(a1-2)Man(a1-3)]Man(b1-4)GlcNAc(b1-4)GlcNAc
# Summary of the method: as §1
# [14] = biological target: Man(a1-2)Man(a1-3)[Man(a1-6)]Man(a1-6)[Man(a1-2)Man(a1-3)]Man(b1-4)GlcNAc(b1-4)GlcNAc
# Summary of the method: as §1
# [15] = biological target: Man(a1-2)Man(a1-6)[Man(a1-3)]Man(a1-6)[Man(a1-2)Man(a1-2)Man(a1-3)]Man
# Summary of the method: as §1
# [16] = biological target: Man(a1-2)Man(a1-6)[Man(a1-3)]Man(a1-6)[Man(a1-2)Man(a1-2)Man(a1-3)]Man(b1-4)GlcNAc(b1-4)GlcNAc
# Summary of the method: as §1
# [17] = biological target: Man(a1-3)[Man(a1-6)]Man
# Summary of the method: as §1
# [18] = biological target: Man(a1-3)[Man(a1-6)]Man(a1-6)[Man(a1-2)Man(a1-3)]Man(b1-4)GlcNAc(b1-4)GlcNAc
# Summary of the method: as §1
# [19] = biological target: Man(a1-3)[Man(a1-6)]Man(a1-6)[Man(a1-3)]Man
# Summary of the method: as §1
# [20] = biological target: Man(a1-3)[Man(a1-6)]Man(a1-6)[Man(a1-3)]Man(b1-4)GlcNAc(b1-4)GlcNAc
# Summary of the method: as §1
# [21] = biological target: Man(a1-3)[Man(a1-6)]Man(b1-4)GlcNAc(b1-4)GlcNAc
# Summary of the method: as §1
# [22] = biological target: Man(a1-6)Man
# Summary of the method: as §1
# [23] = biological target: Man(b1-4)GlcNAc
# Summary of the method: as §1
# [24] = biological target: Neu5Ac(a2-3)Gal
# Summary of the method: as §1
# [25] = biological target: Neu5Ac(a2-3)Gal(b1-3)GalNAc
# Summary of the method: as §1
# [26] = biological target: Neu5Ac(a2-3)Gal(b1-3)GalNAc(b1-3)Gal(a1-4)Gal(b1-4)Glc
# Summary of the method: as §1
# [27] = biological target: Neu5Ac(a2-3)Gal(b1-3)GalNAc(b1-4)[Neu5Ac(a2-3)]Gal(b1-4)Glc
# Summary of the method: as §1
binder,measurement,setting,value
B1,glycan array binding signal (z-score),[1],-0.453
same,glycan array binding signal (z-score),[2],-0.362
same,glycan array binding signal (z-score),[3],0.146
same,glycan array binding signal (z-score),[4],-0.577
same,glycan array binding signal (z-score),[5],-0.883
same,glycan array binding signal (z-score),[6],0.426
same,glycan array binding signal (z-score),[7],-1.11
same,glycan array binding signal (z-score),[8],0.802
same,glycan array binding signal (z-score),[9],0.862
same,glycan array binding signal (z-score),[10],-0.306
same,glycan array binding signal (z-score),[11],1.16
same,glycan array binding signal (z-score),[12],-0.272
same,glycan array binding signal (z-score),[13],-0.176
same,glycan array binding signal (z-score),[14],0.588
same,glycan array binding signal (z-score),[15],1.26
same,glycan array binding signal (z-score),[16],-1.22
same,glycan array binding signal (z-score),[17],0.958
same,glycan array binding signal (z-score),[18],-0.972
same,glycan array binding signal (z-score),[19],-0.819
same,glycan array binding signal (z-score),[20],0.482
same,glycan array binding signal (z-score),[21],-1.21
same,glycan array binding signal (z-score),[22],1.63
same,glycan array binding signal (z-score),[23],0.35
same,glycan array binding signal (z-score),[24],1.18
same,glycan array binding signal (z-score),[25],0.267
same,glycan array binding signal (z-score),[26],0.626
same,glycan array binding signal (z-score),[27],-1.05

# Reprinted from the results shown for reference:
binder,measurement,setting,value
B1,glycan array binding signal (z-score),[19],-0.819
same,glycan array binding signal (z-score),[20],0.482
